Reference: PubChem BioAssay AID540256 (National Center for Advancing Translational Sciences (NCATS), 2011)
Screen size: about 300,000 compounds; about 3,700 (1.2%) were called active. This list was built around the results that the source calls inconclusive (neither active nor inactive); the mix of calls is not that of the screen. Calls come from the whole dose curve; tested in HEK293 cells. A potency beside an inconclusive call is a rough fit, not a confirmed value.

Test: qHTS for Inhibitors of binding or entry into cells for Lassa Virus; note: nearly all actives have a fitted effect of over 50% in size
Settings: Lassa virus pseudotype entry inhibition, cell reporter; activity change, negative = inhibition: at 37.9 µM (top of the series) unless noted
% is set by controls: 0 for no effect and ±100 for the full control effect; potency is the fitted concentration of half-maximal effect.

Compound | activity change, negative = inhibition | Potency
CCCSc1oc(-c2ccco2)nc1S(=O)(=O)c1ccccc1 | inactive: 0.0318% | –
O=C(Cn1cc(SCc2c(F)cccc2Cl)c2ccccc21)N1CCCCC1 | inactive: 4.83% [at 46.1 µM] | –
O=C(/C=C/c1ccco1)NC(=S)Nc1ccc(N2CCCC2)cc1 | – | inconclusive: 16.4 µM [inhibitor, partial curve]
COc1ccc(C(=O)O/N=C(\N)c2ccc(Br)cc2)cc1 | – | inconclusive: 22.4 µM [inhibitor, single point]
COc1cccc2c(SCC(=O)N/N=C/c3ccc(O)cc3O)cc(C)nc12 | – | inconclusive: 10 µM [inhibitor, partial curve, poor fit]
CCN(CC)S(=O)(=O)c1ccc(N/N=C(\C)c2ccncc2)nc1 | inactive: 1.53% [at 46.1 µM] | –
CC(=O)C1CCC2C3CCC4=CC(=O)C=CC4(C)C3CCC12C (stereo unspecified) | – | inconclusive: 14.1 µM [inhibitor, partial curve, poor fit]
O=C(c1c(F)cccc1F)N1CCN(c2cccc(C(F)(F)F)c2)CC1 | – | inconclusive: 12.6 µM [inhibitor, partial curve, poor fit]
CC(c1ccco1)N(C(=O)COc1ccc(Cl)cc1Cl)c1ccccn1 (stereo unspecified) | inactive: -11.6% | –
CCOC(=O)c1ccccc1OCc1cc(/C=N/NC(=O)c2cccnc2)ccc1OC | – | inconclusive: 20 µM [inhibitor, single point]
CC1CCN(C(=O)CNS(=O)(=O)c2ccc(Br)s2)CC1 | – | inconclusive: 3.26 µM [activator, single point]
O=C(COC(=O)c1nc(Cl)ccc1Cl)Nc1ccccc1OC(F)F | inactive: -0.764% | –
CN(C)S(=O)(=O)c1cccc(NC(=O)CSc2nc3ccccc3[nH]2)c1 | – | inconclusive: 35.5 µM [inhibitor, single point]
CCOC(=O)c1c(C)[nH]c(C(=O)CN2C(=O)NC(CC)(c3ccccc3)C2=O)c1C (stereo unspecified) | – | inconclusive: 15.8 µM [inhibitor, single point]
CCn1c(=O)cc(OCC(=O)N2CCN(c3ccc(C)cc3)C(C)C2)c2ccccc21 (stereo unspecified) | – | inconclusive: 35.5 µM [inhibitor, partial curve, poor fit]
Cc1ccc2nc3sc(C(=O)N4CCCc5ccccc54)c(N)c3cc2c1 | – | inconclusive: 13 µM [inhibitor, partial curve, poor fit]
Cc1oc2c(C)c3oc(=O)c4c(c3cc2c1C)CCC4 | – | inconclusive: 12.6 µM [activator, single point]
CCCc1ccc(OCC(=O)NNC(=O)c2cccnc2)cc1 | inactive: 0.923% | –
CCn1cc(C(=O)NCCc2ccc(OC)c(OC)c2)c(=O)c2cc(S(=O)(=O)N(C)C3CCCCC3)ccc21 | – | inconclusive: 10 µM [inhibitor, partial curve, poor fit]
Cc1ccc(NC(=O)c2oc(=O)c3ccccc3c2-c2ccccc2)c(C)c1 | – | inconclusive: 2.31 µM [inhibitor, partial curve, poor fit]
COc1ccc2cc3c(N)nn(C(=O)c4ccccc4Cl)c3nc2c1 | – | inconclusive: 35.5 µM [inhibitor, single point]
O=C(CCNC(=O)OCc1ccccc1)NC1CCCCC1 | inactive: 0.295% | –

Two of these compounds in a different format:
Compound	activity change, negative = inhibition	Potency
COc1cccc2c(SCC(=O)N/N=C/c3ccc(O)cc3O)cc(C)nc12	–	inconclusive: 10 µM [inhibitor, partial curve, poor fit]
CCN(CC)S(=O)(=O)c1ccc(N/N=C(\C)c2ccncc2)nc1	inactive: 1.53% [at 46.1 µM]	–

The listing continues.

Compound | activity change, negative = inhibition | Potency
CCN(CC)S(=O)(=O)c1cccc(NC(=O)CCNC(=O)c2ccccc2Cl)c1 | – | inconclusive: 0.158 µM [inhibitor, partial curve, poor fit]
N#Cc1ccsc1NC(=O)COc1ccc(-c2nnco2)cc1 | inactive: 23% | –
CCOC(=O)C1CCCN(C(=O)c2cccc(S(=O)(=O)N(C)c3ccc(OC)cc3)c2)C1 (stereo unspecified) | – | inconclusive: 3.55 µM [inhibitor, partial curve, poor fit]
O=C(COC(=O)c1cccc(NS(=O)(=O)c2ccc(F)c(F)c2)c1)NC(=O)NC1CCCC1 | – | inconclusive: 14.1 µM [inhibitor, single point]
Cc1ccc(C)c(C(=O)COc2ccccc2[N+](=O)[O-])c1 | inactive: -1.14% | –
COc1ccccc1NC(=O)CC(c1ccc(F)cc1)c1ccco1 (stereo unspecified) | – | inconclusive: 35.5 µM [inhibitor, single point]
O=C(c1cnc(N2CCN(c3ncccn3)CC2)c2ccccc12)N1CCN(c2ccccn2)CC1 | – | active: 11.2 µM
CC(NC(=O)c1csc2ccccc12)C1CCCO1 (stereo unspecified) | – | inconclusive: 29.1 µM [activator, single point]
COc1ccc(-n2nnnc2/C=C\Nc2ccc(C)cc2)cc1 | – | inconclusive: 25.1 µM [inhibitor, single point]
CC1CCCN(CCCNC(=O)c2ccc3c(c2)N(Cc2ccc(Cl)cc2)C(=O)c2ccccc2S3(=O)=O)C1 (stereo unspecified) | – | inconclusive: 10 µM [inhibitor, partial curve, poor fit]
Cc1cc(OC(C)C(=O)N(Cc2ccc(N(C)C)cc2)Cc2ccco2)ccc1Cl (stereo unspecified) | inactive: -4.44% [at 46.1 µM] | –
Cc1cc(C)nc(Sc2nc(Cl)nc(N(c3ccccc3)c3ccccc3)n2)n1 | inactive: -8.86% | –
CCOC(=O)c1cc([N+](=O)[O-])c([N+](=O)[O-])cc1NC(C)=O | inactive: -12.9% | –
COC(=O)C1=CN(Cc2ccc(C)cc2)C=C(C(=O)OC)C1c1ccc(F)c(F)c1 | – | inconclusive: 3.55 µM [inhibitor, partial curve, poor fit]
CCOC(=O)C1CCN(C(c2ccccn2)c2c(C)[nH]c3ccccc23)CC1 (stereo unspecified) | inactive: -16.4% | –
CCCc1cc(=O)oc2cc(OCc3nn[nH]n3)ccc12 | – | inconclusive: 3.26 µM [inhibitor, partial curve, poor fit]
CC(C)(C)C1CCC(=NNC(=O)c2ccc(Br)o2)CC1 (stereo unspecified) | – | inconclusive: 14.1 µM [activator, single point]
CCC(CC)c1nnc(NC(=O)CN2C(=O)c3ccccc3C2=O)s1 | – | inconclusive: 8.91 µM [activator, partial curve, poor fit]
COc1ccc2c(c1)[nH]c1c(=O)n(CC3CCCO3)cnc12 (stereo unspecified) | – | inconclusive: 29.1 µM [activator, single point]
NS(=O)(=O)c1ccc(N=Nc2c(O)[nH]c3ccc(C(=O)NCc4ccncc4)cc23)cc1 | – | inconclusive: 1.58 µM [inhibitor, full curve, poor fit]
Cc1c(CN2CCCCC2)c(O)n(CCCO)c(=O)c1C#N | – | inconclusive: 35.5 µM [activator, partial curve, poor fit]
Cc1ccc(C2=C/C(=C/c3cccs3)C(=O)O2)cc1 | – | inconclusive: 35.5 µM [activator, single point]

Compound | activity change, negative = inhibition | Potency
CC(C)(C)C(=O)/C=C/Nc1ccccc1O | – | inconclusive: 16.4 µM [inhibitor, partial curve, poor fit]
CCc1ccc(CNC(=O)Cn2nc(-c3ccc(C)cc3)ccc2=O)cc1 | – | inconclusive: 22.4 µM [inhibitor, single point]
COC(=O)CC1OC1[C@H](C)[C@@H](OC)C(C)C (stereo partly specified) | – | inconclusive: 0.668 µM [inhibitor, single point]
CCn1c(SCc2ccc(C#N)cc2)nnc1-c1ccc(S(=O)(=O)N2CCCCC2)cc1 | – | inconclusive: 23.1 µM [inhibitor, single point]
Cc1ccccc1Cn1nnc(-c2ccc(F)cc2)n1 | – | inconclusive: 14.1 µM [activator, partial curve, poor fit]
Cc1ccc(Nc2sc(C(=O)c3ccccc3)c(N)c2S(=O)(=O)c2ccccc2)cc1Cl | – | inconclusive: 1.12 µM [inhibitor, full curve, poor fit]
COc1ccc2[nH]c(=O)c(CN(C(=O)c3cccnc3)c3ccc(C)c(C)c3)cc2c1 | – | inconclusive: 7.94 µM [inhibitor, partial curve, poor fit]
Fc1ccc(-n2ncc3c(Nc4ccc5c(c4)OCCO5)ncnc32)cc1 | inactive: 10.5% [at 46.1 µM] | –
COc1ccc(C2=CSC3=C(C(=O)c4cccc(S(=O)(=O)N(C)C)c4)CCN23)cc1 | inactive: -15.3% | –
O=C(COc1ccc(Cl)cc1)N(c1ccc(Cl)cc1)C1CN2CCC1CC2 (stereo unspecified) | – | inconclusive: 35.5 µM [inhibitor, single point]
Cn1nnc2c(N3CCN(c4ccc(F)cc4)CC3)ncnc21 | – | inconclusive: 35.5 µM [inhibitor, single point]
Cc1nc(NC(=O)/C=C/c2ccccc2)sc1C(=O)NCCO | inactive: 27.2% | –
O=C(Nc1ccc(F)cc1)C1C2CCC3C(CCC21)C3(Cl)Cl (stereo unspecified) | – | inconclusive: 3.16 µM [inhibitor, partial curve, poor fit]
O=C(/C=C/c1ccco1)NC(=S)Nc1ccc(O)c(-c2nc3ccccc3s2)c1 | – | inconclusive: 10 µM [inhibitor, partial curve, poor fit]
CN1C(=O)/C(=C\c2ccco2)N=C1c1ccc(Cl)cc1Cl | – | inconclusive: 0.708 µM [activator, full curve, poor fit]
Cc1ccc(C2N(C)C(=O)c3ccccc3N2C)cc1 (stereo unspecified) | – | inconclusive: 11.2 µM [inhibitor, single point]
COc1ccc2c(c1)C(C)=CC(C)(C)N2C(=O)C(C)N1C(=O)c2ccccc2C1=O (stereo unspecified) | – | inconclusive: 29.1 µM [inhibitor, single point]
Cc1ccc(OCC(=O)Nc2ccccc2N2CCOCC2)c(C)c1 | inactive: -9.79% | –
O=C(c1ccccc1)c1c2c(cc3sc4ccccc4[n+]13)-c1cccc3cccc-2c13 | – | active: 14.6 µM
Oc1ccccc1CNCC12CC3CC(CC(C3)C1)C2 | – | inconclusive: 35.5 µM [inhibitor, single point]
O=C(NC1=NCCS1)c1ccc([N+](=O)[O-])cc1Cl | – | inconclusive: 28.2 µM [inhibitor, partial curve, poor fit]
COc1ccc2cc3cc(C(=O)NCC4CCCO4)oc3nc2c1 (stereo unspecified) | – | inconclusive: 35.5 µM [inhibitor, single point]
